Laboratory results published in the supplement of paper PMC12823440, “Inhibitors supercharge kinase turnover through native proteolytic circuits” (Nature, 2025).
Where a name gives a salt, the structure may show the parent alone. The list shows a part of the results. The calls rarely recur for the same compound in another form.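 In K562 cells expressing nanoluciferase-fused kinases, luminescence was recorded at 4 h intervals between 2 and 18 h, normalized as percent of control with DMSO at 100% and a positive control at 0%. A significant (2 sigma) signal drop marks a time point as decreased. The authors' rule for a hit is not shown and takes in more than the number of time points.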

The chains behind the UniProt entries cited, without tags or fusion partners. Where a name states a change or a piece, a line headed by the entry shows the natural chain unless it says otherwise.
UniProt Q06187: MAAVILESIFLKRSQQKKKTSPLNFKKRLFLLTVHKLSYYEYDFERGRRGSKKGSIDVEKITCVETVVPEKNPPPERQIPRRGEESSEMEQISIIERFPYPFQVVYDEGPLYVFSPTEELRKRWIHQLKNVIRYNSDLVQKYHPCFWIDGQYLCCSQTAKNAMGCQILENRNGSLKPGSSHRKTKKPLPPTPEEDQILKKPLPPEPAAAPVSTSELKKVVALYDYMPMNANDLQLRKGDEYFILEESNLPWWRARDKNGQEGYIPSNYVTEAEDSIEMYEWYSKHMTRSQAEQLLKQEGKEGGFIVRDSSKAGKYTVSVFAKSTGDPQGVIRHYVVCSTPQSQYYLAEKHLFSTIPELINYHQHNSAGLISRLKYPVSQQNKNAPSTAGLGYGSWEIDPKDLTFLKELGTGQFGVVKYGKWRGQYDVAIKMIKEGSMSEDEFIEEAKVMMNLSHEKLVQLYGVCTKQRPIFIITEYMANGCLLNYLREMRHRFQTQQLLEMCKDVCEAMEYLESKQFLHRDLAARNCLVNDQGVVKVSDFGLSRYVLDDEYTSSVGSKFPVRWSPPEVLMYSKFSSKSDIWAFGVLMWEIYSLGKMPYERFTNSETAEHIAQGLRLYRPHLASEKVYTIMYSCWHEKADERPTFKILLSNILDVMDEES
UniProt Q9UQM7, whole entry: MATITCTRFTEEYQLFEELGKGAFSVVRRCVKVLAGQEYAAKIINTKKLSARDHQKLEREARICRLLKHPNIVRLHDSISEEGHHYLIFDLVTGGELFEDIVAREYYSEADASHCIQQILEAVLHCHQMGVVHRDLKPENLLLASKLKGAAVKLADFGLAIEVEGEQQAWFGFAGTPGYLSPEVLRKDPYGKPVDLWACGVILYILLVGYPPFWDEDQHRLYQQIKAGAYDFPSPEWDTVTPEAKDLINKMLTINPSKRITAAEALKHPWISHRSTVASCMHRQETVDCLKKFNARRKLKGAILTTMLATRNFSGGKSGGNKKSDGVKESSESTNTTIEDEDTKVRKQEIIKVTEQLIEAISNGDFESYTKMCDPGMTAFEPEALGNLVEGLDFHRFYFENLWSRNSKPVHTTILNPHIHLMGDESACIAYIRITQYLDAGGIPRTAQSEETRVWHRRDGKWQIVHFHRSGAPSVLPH
UniProt Q13555: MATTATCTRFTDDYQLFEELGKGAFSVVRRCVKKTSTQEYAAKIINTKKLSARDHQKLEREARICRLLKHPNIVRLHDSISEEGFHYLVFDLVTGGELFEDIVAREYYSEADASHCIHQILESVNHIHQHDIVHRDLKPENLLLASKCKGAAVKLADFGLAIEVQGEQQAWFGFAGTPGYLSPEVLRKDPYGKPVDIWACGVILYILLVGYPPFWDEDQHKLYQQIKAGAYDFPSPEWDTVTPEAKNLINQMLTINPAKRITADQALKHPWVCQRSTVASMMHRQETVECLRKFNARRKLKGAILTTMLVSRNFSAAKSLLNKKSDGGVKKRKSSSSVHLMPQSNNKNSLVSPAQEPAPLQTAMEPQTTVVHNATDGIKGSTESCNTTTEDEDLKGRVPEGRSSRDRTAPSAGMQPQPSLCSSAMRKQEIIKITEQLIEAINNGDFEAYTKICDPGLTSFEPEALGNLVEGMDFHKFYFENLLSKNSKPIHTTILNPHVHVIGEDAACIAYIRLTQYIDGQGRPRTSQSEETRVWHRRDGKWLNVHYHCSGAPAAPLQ
UniProt Q15131: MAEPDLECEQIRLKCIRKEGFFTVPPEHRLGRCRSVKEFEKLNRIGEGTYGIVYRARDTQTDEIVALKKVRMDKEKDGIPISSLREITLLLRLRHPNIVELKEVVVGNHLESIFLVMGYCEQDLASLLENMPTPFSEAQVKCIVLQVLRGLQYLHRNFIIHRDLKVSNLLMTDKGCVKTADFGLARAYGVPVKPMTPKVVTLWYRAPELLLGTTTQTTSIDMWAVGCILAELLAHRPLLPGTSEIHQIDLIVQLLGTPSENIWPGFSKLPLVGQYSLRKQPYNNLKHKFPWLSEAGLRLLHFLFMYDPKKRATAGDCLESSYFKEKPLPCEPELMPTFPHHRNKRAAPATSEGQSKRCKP
UniProt Q00526: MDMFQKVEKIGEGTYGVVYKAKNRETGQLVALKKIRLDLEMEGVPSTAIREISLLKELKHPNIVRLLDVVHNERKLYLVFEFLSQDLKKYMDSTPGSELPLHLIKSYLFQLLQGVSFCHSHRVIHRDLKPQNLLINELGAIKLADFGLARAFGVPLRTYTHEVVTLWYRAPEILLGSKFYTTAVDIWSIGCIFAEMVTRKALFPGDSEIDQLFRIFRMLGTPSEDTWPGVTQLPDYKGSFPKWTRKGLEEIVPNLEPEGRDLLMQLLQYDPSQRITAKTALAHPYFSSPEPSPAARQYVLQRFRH
UniProt P11802: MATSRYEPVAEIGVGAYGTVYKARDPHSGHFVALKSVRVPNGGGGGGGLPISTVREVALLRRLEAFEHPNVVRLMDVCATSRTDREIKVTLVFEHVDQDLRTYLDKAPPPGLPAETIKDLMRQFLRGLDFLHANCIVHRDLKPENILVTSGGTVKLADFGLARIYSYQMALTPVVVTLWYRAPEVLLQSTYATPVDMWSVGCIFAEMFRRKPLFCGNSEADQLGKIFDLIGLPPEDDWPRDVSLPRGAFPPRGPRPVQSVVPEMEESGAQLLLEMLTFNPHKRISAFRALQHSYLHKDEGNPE
UniProt Q00535, whole entry, looked up: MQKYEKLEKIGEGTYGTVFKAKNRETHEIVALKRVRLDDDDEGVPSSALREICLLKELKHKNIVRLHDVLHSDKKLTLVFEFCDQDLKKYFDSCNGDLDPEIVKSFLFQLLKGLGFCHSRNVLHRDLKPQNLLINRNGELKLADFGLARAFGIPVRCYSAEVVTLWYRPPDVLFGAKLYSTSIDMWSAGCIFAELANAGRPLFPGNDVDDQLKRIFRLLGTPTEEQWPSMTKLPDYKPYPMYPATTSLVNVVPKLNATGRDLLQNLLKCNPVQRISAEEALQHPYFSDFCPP
UniProt Q00534, whole entry: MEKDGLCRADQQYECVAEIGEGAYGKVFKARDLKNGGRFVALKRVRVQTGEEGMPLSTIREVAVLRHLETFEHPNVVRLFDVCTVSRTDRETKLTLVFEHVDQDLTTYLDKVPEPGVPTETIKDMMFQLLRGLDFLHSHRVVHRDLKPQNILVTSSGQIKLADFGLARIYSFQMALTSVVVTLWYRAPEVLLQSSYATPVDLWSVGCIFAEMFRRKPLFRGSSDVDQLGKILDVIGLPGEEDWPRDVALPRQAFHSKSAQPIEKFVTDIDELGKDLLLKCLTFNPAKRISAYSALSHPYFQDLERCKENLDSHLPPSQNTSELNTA

Legend:
Test in all cases: kinase-Nluc reporter destabilization hit call (1 = scored as downregulated) (binary); higher = compound decreases kinase abundance
Settings in all cases: K562; 2-18 h
BRAF_V600E = test system: BRAF_V600E
BTK = BTK (UniProt Q06187)
CAMK2A = CAMK2A (UniProt Q9UQM7)
CAMK2G = CAMK2G (UniProt Q13555)
CDK10 = CDK10 (UniProt Q15131)
CDK2 = CDK2 (UniProt P24941)
CDK3 = CDK3 (UniProt Q00526)
CDK4 = CDK4 (UniProt P11802)
CDK5 = CDK5 (UniProt Q00535)
CDK6 = CDK6 (UniProt Q00534)

Measured: kinase-Nluc reporter destabilization hit call

N#Cc1ccc(-c2cnc3ccc(-c4ccc(C(=O)N5CCOCC5)cc4)cn23)cc1 (10 µM)
inactive: BRAF_V600E 0 | BTK 0 | CAMK2A 0 | CAMK2G 0 | CDK10 = 0 | CDK2 = 0 | CDK3 = 0 | CDK4 = 0 | CDK5 = 0 | CDK6 = 0

C#Cc1cccc(Nc2ncnc3cc(OC)c(NC(=O)N4C[C@H]5CCN(C)[C@H]5C4)cc23)c1 [Theliatinib] (10 µM)
inactive: BRAF_V600E 0 | BTK 0 | CAMK2A 0 | CAMK2G 0 | CDK10 = 0 | CDK2 = 0 | CDK3 = 0 | CDK4 = 0 | CDK5 = 0 | CDK6 = 0

Cc1ccc(C(=O)NC2CC2)cc1-n1ncc(C(=O)c2cccc(C#N)c2)c1N [Acumapimod] (10 µM)
inactive: BRAF_V600E 0 | BTK 0 | CAMK2A 0 | CAMK2G 0 | CDK10 = 0 | CDK2 = 0 | CDK3 = 0 | CDK4 = 0 | CDK5 = 0 | CDK6 = 0

Fetched by compound from the list above, two records:
C#Cc1cccc(Nc2ncnc3cc(OC)c(NC(=O)N4C[C@H]5CCN(C)[C@H]5C4)cc23)c1 [Theliatinib] (10 µM)
inactive: BRAF_V600E 0 | BTK 0 | CAMK2A 0 | CAMK2G 0 | CDK10 = 0 | CDK2 = 0 | CDK3 = 0 | CDK4 = 0 | CDK5 = 0 | CDK6 = 0

Cc1ccc(C(=O)NC2CC2)cc1-n1ncc(C(=O)c2cccc(C#N)c2)c1N [Acumapimod] (10 µM)
inactive: BRAF_V600E 0 | BTK 0 | CAMK2A 0 | CAMK2G 0 | CDK10 = 0 | CDK2 = 0 | CDK3 = 0 | CDK4 = 0 | CDK5 = 0 | CDK6 = 0

Later entries:

Cc1cc(O)c2c(c1)C(=O)c1cccc(O)c1C2=O [Chrysophanol] (2 µM)
inactive: BRAF_V600E 0 | BTK 0 | CAMK2A 0 | CAMK2G 0 | CDK10 = 0 | CDK2 = 0 | CDK3 = 0 | CDK4 = 0 | CDK5 = 0 | CDK6 = 0

COc1cc(-c2oc3cc(O)cc(O)c3c(=O)c2O)ccc1O [Isorhamnetin] (10 µM)
inactive: BRAF_V600E 0 | BTK 0 | CAMK2A 0 | CAMK2G 0 | CDK10 = 0 | CDK2 = 0 | CDK3 = 0 | CDK4 = 0 | CDK5 = 0 | CDK6 = 0

COc1cc(N2CCOCC2)ccc1Nc1ncc(F)c(Nc2ccccc2NS(C)(=O)=O)n1 (10 µM)
inactive: BRAF_V600E 0 | BTK 0 | CAMK2A 0 | CAMK2G 0 | CDK10 = 0 | CDK2 = 0 | CDK3 = 0 | CDK4 = 0 | CDK5 = 0 | CDK6 = 0

CC(C)Oc1ccc(F)c(-c2cnc(N)c(C(=O)Nc3cnccc3N3CCC[C@@H](C(=O)O)C3)n2)c1 (2 µM)
inactive: BRAF_V600E 0 | BTK 0 | CAMK2A 0 | CAMK2G 0 | CDK10 = 0 | CDK2 = 0 | CDK3 = 0 | CDK4 = 0 | CDK5 = 0 | CDK6 = 0

COc1cc2c(cc1OC)/C(=C/c1ccc(O)cc1)C(=O)N2 (10 µM)
inactive: BRAF_V600E 0 | BTK 0 | CAMK2A 0 | CAMK2G 0 | CDK10 = 0 | CDK2 = 0 | CDK3 = 0 | CDK4 = 0 | CDK5 = 0 | CDK6 = 0

NC(=O)c1ccc(N(C(N)=O)c2c(F)cccc2F)nc1-c1ccc(F)cc1F (10 µM)
inactive: BRAF_V600E 0 | BTK 0 | CAMK2A 0 | CAMK2G 0 | CDK10 = 0 | CDK2 = 0 | CDK3 = 0 | CDK4 = 0 | CDK5 = 0 | CDK6 = 0

CC1=C(C(=O)Nc2cc3cn[nH]c3cc2F)C(c2ccc(C(F)(F)F)cc2)CC(=O)N1 (stereo not given) (10 µM)
inactive: BRAF_V600E 0 | BTK 0 | CAMK2A 0 | CAMK2G 0 | CDK10 = 0 | CDK2 = 0 | CDK3 = 0 | CDK4 = 0 | CDK5 = 0 | CDK6 = 0

Nc1ncnc2c1nc(Br)n2[C@@H]1O[C@@H]2COP(=O)(O)O[C@H]2[C@H]1O [8-Bromo-cAMP sodium salt] (10 µM)
inactive: BRAF_V600E 0 | BTK 0 | CAMK2A 0 | CAMK2G 0 | CDK10 = 0 | CDK2 = 0 | CDK3 = 0 | CDK4 = 0 | CDK5 = 0 | CDK6 = 0

COC(=O)Nc1ccc(-c2nc(N3CCOCC3)c3cnn(C4CCN(C(=O)OC)CC4)c3n2)cc1 (10 µM)
inactive: BRAF_V600E 0 | BTK 0 | CAMK2A 0 | CAMK2G 0 | CDK10 = 0 | CDK2 = 0 | CDK3 = 0 | CDK4 = 0 | CDK5 = 0 | CDK6 = 0

Nc1ncc(C(=O)NC2CN(C(=O)C3CC3)C2)c2ccc(-c3cccc(F)c3)nc12 (2 µM)
inactive: BRAF_V600E 0 | BTK 0 | CAMK2A 0 | CAMK2G 0 | CDK10 = 0 | CDK2 = 0 | CDK3 = 0 | CDK4 = 0 | CDK5 = 0 | CDK6 = 0

Cn1c2cc([S+](C)[O-])sc2c2cnn(Cc3cccc(N)c3)c(=O)c21 (stereo not given) (2.5 µM)
inactive: BRAF_V600E 0 | BTK 0 | CAMK2A 0 | CAMK2G 0 | CDK10 = 0 | CDK2 = 0 | CDK3 = 0 | CDK4 = 0 | CDK5 = 0 | CDK6 = 0

COc1c(O)cc2oc(-c3ccc(O)cc3)cc(=O)c2c1O [Hispidulin] (10 µM)
inactive: BRAF_V600E 0 | BTK 0 | CAMK2A 0 | CAMK2G 0 | CDK10 = 0 | CDK2 = 0 | CDK3 = 0 | CDK4 = 0 | CDK5 = 0 | CDK6 = 0

O=C(Nc1cccc(-c2nc(-c3ccc(NC(=O)c4cccnc4)cc3Cl)no2)c1)Nc1ccc(NC(=O)C2CC2)c(C(F)(F)F)c1 (2.5 µM)
inactive: BRAF_V600E 0 | BTK 0 | CAMK2A 0 | CAMK2G 0 | CDK10 = 0 | CDK2 = 0 | CDK3 = 0 | CDK4 = 0 | CDK5 = 0 | CDK6 = 0

Cn1cc(-c2cc(Oc3cc(F)c(NC(=O)C4(C(=O)Nc5ccccc5)CC4)cc3F)ccn2)cn1 (2.5 µM)
inactive: BRAF_V600E 0 | BTK 0 | CAMK2A 0 | CAMK2G 0 | CDK10 = 0 | CDK2 = 0 | CDK3 = 0 | CDK4 = 0 | CDK5 = 0 | CDK6 = 0

NCCOc1ccc(Cl)cc1C(=O)Nc1ccc([N+](=O)[O-])cc1Cl [HJC0152 hydrochloride] (2 µM)
inactive: BRAF_V600E 0 | BTK 0 | CAMK2A 0 | CAMK2G 0 | CDK10 = 0 | CDK2 = 0 | CDK3 = 0 | CDK4 = 0 | CDK5 = 0 | CDK6 = 0

O=C(O)c1cc(N(Cc2ccccc2O)Cc2cc(O)ccc2O)ccc1O [Lavendustin A] (10 µM)
inactive: BRAF_V600E 0 | BTK 0 | CAMK2A 0 | CAMK2G 0 | CDK10 = 0 | CDK2 = 0 | CDK3 = 0 | CDK4 = 0 | CDK5 = 0 | CDK6 = 0

C[C@H]1O[C@@H](O[C@H]2CC[C@@]3(C)[C@@H](CC[C@]4(C)[C@@H]3C=C[C@]35OC[C@@]6(CCC(C)(C)C[C@H]63)[C@H](O)C[C@]54C)[C@]2(C)CO)[C@H](O)[C@@H](O[C@@H]2O[C@H](CO)[C@@H](O)[C@H](O)[C@H]2O)[C@H]1O [Saikosaponin D] (2.5 µM)
inactive: BRAF_V600E 0 | BTK 0 | CAMK2A 0 | CAMK2G 0 | CDK10 = 0 | CDK2 = 0 | CDK3 = 0 | CDK4 = 0 | CDK5 = 0 | CDK6 = 0

COc1ccc2c(Oc3ccc4c(C(=O)Nc5ccccc5N)cccc4c3)ccnc2c1 [Chiauranib] (10 µM)
inactive: BRAF_V600E 0 | BTK 0 | CAMK2A 0 | CAMK2G 0 | CDK10 = 0 | CDK2 = 0 | CDK3 = 0 | CDK4 = 0 | CDK5 = 0 | CDK6 = 0

Cc1nc[nH]c1CN1CCN(C(=O)N[C@@H](CC(C)C)C(=O)O)[C@@H](Cc2ccccc2)C1=O (10 µM)
inactive: BRAF_V600E 0 | BTK 0 | CAMK2A 0 | CAMK2G 0 | CDK10 = 0 | CDK2 = 0 | CDK3 = 0 | CDK4 = 0 | CDK5 = 0 | CDK6 = 0

COc1ccc(S(=O)(=O)Nc2cc(-c3c(O)ccc4ccccc34)c(O)c3ccccc23)cc1 (10 µM)
inactive: BRAF_V600E 0 | BTK 0 | CAMK2A 0 | CAMK2G 0 | CDK10 = 0 | CDK2 = 0 | CDK3 = 0 | CDK4 = 0 | CDK5 = 0 | CDK6 = 0

C[C@@H]1O[C@@H](Oc2cc(O)c3c(=O)c(O[C@@H]4O[C@@H](C)[C@H](O)[C@@H](O)[C@H]4O)c(-c4ccc(O)cc4)oc3c2)[C@H](O)[C@H](O)[C@H]1O [Kaempferitrin] (10 µM)
inactive: BRAF_V600E 0 | BTK 0 | CAMK2A 0 | CAMK2G 0 | CDK10 = 0 | CDK2 = 0 | CDK3 = 0 | CDK4 = 0 | CDK5 = 0 | CDK6 = 0

O=c1cc(-c2ccccc2)oc2cc(O[C@@H]3O[C@H](CO[C@@H]4O[C@H](CO)[C@@H](O)[C@H](O)[C@H]4O)[C@@H](O)[C@H](O)[C@H]3O)c(O)c(O)c12 [Oroxin B] (10 µM)
inactive: BRAF_V600E 0 | BTK 0 | CAMK2A 0 | CAMK2G 0 | CDK10 = 0 | CDK2 = 0 | CDK3 = 0 | CDK4 = 0 | CDK5 = 0 | CDK6 = 0

Nc1nc(N)c2nc(-c3cccc(O)c3)c(-c3cccc(O)c3)nc2n1 (10 µM)
inactive: BRAF_V600E 0 | BTK 0 | CAMK2A 0 | CAMK2G 0 | CDK10 = 0 | CDK2 = 0 | CDK3 = 0 | CDK4 = 0 | CDK5 = 0 | CDK6 = 0

O=c1c2c([nH]n1-c1nc3ccccc3s1)CCCC2 (10 µM)
inactive: BRAF_V600E 0 | BTK 0 | CAMK2A 0 | CAMK2G 0 | CDK10 = 0 | CDK2 = 0 | CDK3 = 0 | CDK4 = 0 | CDK5 = 0 | CDK6 = 0

Nc1ncc(-c2ccnc(Nc3ccncc3)n2)c(CC2CC2)n1 (10 µM)
inactive: BRAF_V600E 0 | BTK 0 | CAMK2A 0 | CAMK2G 0 | CDK10 = 0 | CDK2 = 0 | CDK3 = 0 | CDK4 = 0 | CDK5 = 0 | CDK6 = 0

Cc1c(C)c(NCC(=O)N(C)C2CCN(Cc3ccc(C(N)=O)cc3)CC2)c(C)c(C)c1N (10 µM)
inactive: BRAF_V600E 0 | BTK 0 | CAMK2A 0 | CAMK2G 0 | CDK10 = 0 | CDK2 = 0 | CDK3 = 0 | CDK4 = 0 | CDK5 = 0 | CDK6 = 0
